Experiment [1] concerns the target T1, human CD6-Fc (human) (UniProt P30203).
T1 sequence (looked up): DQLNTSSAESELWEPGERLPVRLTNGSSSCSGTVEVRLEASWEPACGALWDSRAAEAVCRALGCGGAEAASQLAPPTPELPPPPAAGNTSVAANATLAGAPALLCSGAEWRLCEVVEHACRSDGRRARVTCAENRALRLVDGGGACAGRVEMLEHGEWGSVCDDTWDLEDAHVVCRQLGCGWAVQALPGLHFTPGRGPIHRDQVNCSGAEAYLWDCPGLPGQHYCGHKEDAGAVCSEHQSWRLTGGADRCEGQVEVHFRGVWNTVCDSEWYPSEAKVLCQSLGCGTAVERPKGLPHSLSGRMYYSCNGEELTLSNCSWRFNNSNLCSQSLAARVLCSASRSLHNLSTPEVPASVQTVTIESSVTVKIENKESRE
As to the kind of experiment: ELISA, plates coated with 2, 4, 8, 16 ug/ml CD6-Fc (positive control), CD166-Fc added, detected with anti-CD166 antibody.

Experiment [2] has as its target T2, ILT3Fc (water-soluble recombinant protein: extracellular domain of human ILT3 affixed to the Fc portion of an immunoglobulin) (human) (UniProt Q8NHJ6+P01857). As to the kind of experiment: ELISA, plates coated with 2, 4, 8, 16 ug/ml ILT3Fc, CD166-Fc added, detected with anti-CD166 antibody. (ELISA stands for enzyme-linked immunosorbent assay.)
Experiment [3] addresses T2, ILT3Fc (water-soluble recombinant protein: extracellular domain of human ILT3 affixed to the Fc portion of an immunoglobulin) (human). The experiment can be described thus: ELISA, plates coated with 2, 4, 8, 16 ug/ml ILT3Fc, recombinant full length CD166 added, detected with anti-CD166 antibody.
The target in experiment [4] is T1, human CD6-Fc (human). As to the kind of experiment: ELISA, plates coated with 2, 4, 8, 16 ug/ml CD6-Fc (positive control), recombinant full length CD166 added, detected with anti-CD166 antibody.
Experiment [5] concerns the target T3, human CD166Fc (human) (UniProt Q13740).
T3 sequence (looked up): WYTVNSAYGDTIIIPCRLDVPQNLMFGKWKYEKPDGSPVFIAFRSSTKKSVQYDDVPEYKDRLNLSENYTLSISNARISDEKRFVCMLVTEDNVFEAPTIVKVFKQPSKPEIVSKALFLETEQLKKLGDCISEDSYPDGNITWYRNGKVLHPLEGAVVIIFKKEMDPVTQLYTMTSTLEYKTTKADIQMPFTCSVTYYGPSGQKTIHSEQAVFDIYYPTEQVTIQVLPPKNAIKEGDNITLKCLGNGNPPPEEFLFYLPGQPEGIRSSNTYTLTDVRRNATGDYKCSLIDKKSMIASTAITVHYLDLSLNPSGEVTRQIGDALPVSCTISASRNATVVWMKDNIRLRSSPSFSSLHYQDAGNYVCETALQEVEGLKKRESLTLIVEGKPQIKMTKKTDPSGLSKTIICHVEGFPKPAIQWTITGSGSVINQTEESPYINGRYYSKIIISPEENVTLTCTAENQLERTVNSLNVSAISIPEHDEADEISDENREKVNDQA
The experiment can be described thus: ELISA, CD6-Fc coated at 2-16 ug/mL, CD166Fc in solution, anti-CD166 detection.

Experiment [6] has as its target T4, full length human CD166 protein (recombinant) (human) (UniProt Q13740).
T4 sequence (looked up): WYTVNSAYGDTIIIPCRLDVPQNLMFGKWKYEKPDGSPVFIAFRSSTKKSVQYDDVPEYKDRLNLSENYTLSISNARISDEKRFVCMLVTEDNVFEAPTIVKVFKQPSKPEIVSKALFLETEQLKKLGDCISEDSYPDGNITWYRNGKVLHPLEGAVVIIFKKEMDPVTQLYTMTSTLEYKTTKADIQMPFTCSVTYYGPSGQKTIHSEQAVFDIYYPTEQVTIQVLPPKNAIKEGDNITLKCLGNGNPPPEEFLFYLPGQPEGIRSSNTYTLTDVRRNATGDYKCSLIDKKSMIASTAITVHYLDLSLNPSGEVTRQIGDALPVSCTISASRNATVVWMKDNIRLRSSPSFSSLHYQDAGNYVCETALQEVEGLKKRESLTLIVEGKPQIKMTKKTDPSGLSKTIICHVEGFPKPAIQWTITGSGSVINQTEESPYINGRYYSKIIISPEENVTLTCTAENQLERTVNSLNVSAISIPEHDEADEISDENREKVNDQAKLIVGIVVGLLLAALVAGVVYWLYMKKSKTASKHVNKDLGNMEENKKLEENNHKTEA
As to the kind of experiment: ELISA, CD6-Fc coated at 2-16 ug/mL, full length CD166 in solution, anti-CD166 detection.

Results are given in words; binding and its absence hold for the method and conditions named. Some results given as binding are weak or reduced against the parent protein; the word gives no strength. For part of these data: Where a sequence is shown, tags or fusion partners need not be part of it.

B1: human CD166Fc (Fc fusion, UniProt Q13740 28-526, looked up, not shown: a dimerising Fc or GST)
chain: WYTVNSAYGDTIIIPCRLDVPQNLMFGKWKYEKPDGSPVFIAFRSSTKKSVQYDDVPEYKDRLNLSENYTLSISNARISDEKRFVCMLVTEDNVFEAPTIVKVFKQPSKPEIVSKALFLETEQLKKLGDCISEDSYPDGNITWYRNGKVLHPLEGAVVIIFKKEMDPVTQLYTMTSTLEYKTTKADIQMPFTCSVTYYGPSGQKTIHSEQAVFDIYYPTEQVTIQVLPPKNAIKEGDNITLKCLGNGNPPPEEFLFYLPGQPEGIRSSNTYTLTDVRRNATGDYKCSLIDKKSMIASTAITVHYLDLSLNPSGEVTRQIGDALPVSCTISASRNATVVWMKDNIRLRSSPSFSSLHYQDAGNYVCETALQEVEGLKKRESLTLIVEGKPQIKMTKKTDPSGLSKTIICHVEGFPKPAIQWTITGSGSVINQTEESPYINGRYYSKIIISPEENVTLTCTAENQLERTVNSLNVSAISIPEHDEADEISDENREKVNDQA
Consider B1, for which the binding result in experiment [1] and in experiment [2] was “binds” in each case.

B2: full length human CD166 protein (recombinant) (receptor, UniProt Q13740 28-583, looked up)
chain: WYTVNSAYGDTIIIPCRLDVPQNLMFGKWKYEKPDGSPVFIAFRSSTKKSVQYDDVPEYKDRLNLSENYTLSISNARISDEKRFVCMLVTEDNVFEAPTIVKVFKQPSKPEIVSKALFLETEQLKKLGDCISEDSYPDGNITWYRNGKVLHPLEGAVVIIFKKEMDPVTQLYTMTSTLEYKTTKADIQMPFTCSVTYYGPSGQKTIHSEQAVFDIYYPTEQVTIQVLPPKNAIKEGDNITLKCLGNGNPPPEEFLFYLPGQPEGIRSSNTYTLTDVRRNATGDYKCSLIDKKSMIASTAITVHYLDLSLNPSGEVTRQIGDALPVSCTISASRNATVVWMKDNIRLRSSPSFSSLHYQDAGNYVCETALQEVEGLKKRESLTLIVEGKPQIKMTKKTDPSGLSKTIICHVEGFPKPAIQWTITGSGSVINQTEESPYINGRYYSKIIISPEENVTLTCTAENQLERTVNSLNVSAISIPEHDEADEISDENREKVNDQAKLIVGIVVGLLLAALVAGVVYWLYMKKSKTASKHVNKDLGNMEENKKLEENNHKTEA
Take B2: the binding entry in experiment [3] and in experiment [4] was “binds” throughout.

B3: human CD6-Fc (Fc fusion, UniProt P30203 25-398, looked up, not shown: a dimerising Fc or GST)
chain: DQLNTSSAESELWEPGERLPVRLTNGSSSCSGTVEVRLEASWEPACGALWDSRAAEAVCRALGCGGAEAASQLAPPTPELPPPPAAGNTSVAANATLAGAPALLCSGAEWRLCEVVEHACRSDGRRARVTCAENRALRLVDGGGACAGRVEMLEHGEWGSVCDDTWDLEDAHVVCRQLGCGWAVQALPGLHFTPGRGPIHRDQVNCSGAEAYLWDCPGLPGQHYCGHKEDAGAVCSEHQSWRLTGGADRCEGQVEVHFRGVWNTVCDSEWYPSEAKVLCQSLGCGTAVERPKGLPHSLSGRMYYSCNGEELTLSNCSWRFNNSNLCSQSLAARVLCSASRSLHNLSTPEVPASVQTVTIESSVTVKIENKESRE
For B3, the binding result in experiment [5] and in experiment [6] was “binds” each time.

For the origin of these results see US20180207269A1.
